Experimental data: PubChem BioAssay AID743121 (NCATS, 2013)
Here is one part, drawn at random, of about 26,000 reagents. 167 of them (0.63%) count as active. 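Calls are per gene from RSA p-values that are not deposited; an individual active-marked siRNA can sensitise only weakly.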 The numbers tell different reagents against one gene apart. Further read-outs or replicates are left out here.

Test: 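Knock-downs that sensitise breast cancer cells to camptothecin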 (primary screen)
Cell system: MDA-MB-231 cells, a human breast cancer line
Knock-down reagent: single siRNA against human genes, 20 nM siRNA (0.8 pmol per well)
Duration: 120 h (drug added 48 h after transfection, read 72 h later)
Challenge: camptothecin 20 nM (about EC30) for 72 h; vehicle 0.1% DMSO in parallel plates
Detection: 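Cell viability by ATP luminescence (CellTiter-Glo) as % of non-targeting siRNA wells, and the log2 ratio of viability without drug over viability with camptothecin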
Direction: log2 vehicle/camptothecin viability: higher = stronger sensitisation to camptothecin; viability with camptothecin: higher = more viable cells
Units: viability with camptothecin in % of control
Active means: 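Each gene scored by redundant siRNA activity (RSA) over its individual siRNA ratios; a gene is called active at p < 0.001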

With knock-down of RP2 (GeneID 6102) #1 the results were log2 vehicle/camptothecin viability -0.222; viability with camptothecin 68.8; inactive. For RP2 (GeneID 6102) #2, the entry reads log2 vehicle/camptothecin viability 0.256; viability with camptothecin 40.8; inactive. Against RP2 (GeneID 6102) #3 the deposit lists log2 vehicle/camptothecin viability -0.0135; viability with camptothecin 90.5; inactive. TIPIN (GeneID 54962) #1 showed log2 vehicle/camptothecin viability -0.863; viability with camptothecin 84.7; inactive. For TIPIN (GeneID 54962) #2, the values are log2 vehicle/camptothecin viability -0.394; viability with camptothecin 41; inactive. After knock-down of TIPIN (GeneID 54962) #3 the results were log2 vehicle/camptothecin viability 0.0688; viability with camptothecin 30.2; inactive.

With knock-down of TIPIN (GeneID 54962) #4 the results were log2 vehicle/camptothecin viability -0.344; viability with camptothecin 27; inactive. For OR7E91P (GeneID 79315) #1, the values are log2 vehicle/camptothecin viability 0.13; viability with camptothecin 44; inactive. After knock-down of OR7E91P (GeneID 79315) #2, the screen gave log2 vehicle/camptothecin viability -0.258; viability with camptothecin 67.8; inactive. OR7E91P (GeneID 79315) #3 gave log2 vehicle/camptothecin viability 0.383; viability with camptothecin 73.2; inactive. Silencing of OR7E91P (GeneID 79315) #4 came out at: log2 vehicle/camptothecin viability 0.00594; viability with camptothecin 76; inactive. With knock-down of OR7E91P (GeneID 79315) #5, the screen gave log2 vehicle/camptothecin viability 0.564; viability with camptothecin 19.2; inactive.

Depletion of OR7E91P (GeneID 79315) #6 came out at: log2 vehicle/camptothecin viability -0.306; viability with camptothecin 87.3; inactive. Against KCNH5 (GeneID 27133) #1, the values are log2 vehicle/camptothecin viability -0.206; viability with camptothecin 89.9; inactive. Knock-down of KCNH5 (GeneID 27133) #2 gave: log2 vehicle/camptothecin viability -0.266; viability with camptothecin 88.9; inactive. KCNH5 (GeneID 27133) #3 scored log2 vehicle/camptothecin viability -0.119; viability with camptothecin 96.6; inactive. Against KCNH5 (GeneID 27133) #4, the values are log2 vehicle/camptothecin viability 0.458; viability with camptothecin 65.5; inactive. After knock-down of DBT (GeneID 1629) #1 the results were log2 vehicle/camptothecin viability -0.207; viability with camptothecin 59.4; inactive.

Against DBT (GeneID 1629) #2, the values are log2 vehicle/camptothecin viability -0.129; viability with camptothecin 121; inactive. After knock-down of DBT (GeneID 1629) #3, the screen gave log2 vehicle/camptothecin viability -0.619; viability with camptothecin 83.3; inactive. For EDN1 (GeneID 1906) #1 the deposit lists log2 vehicle/camptothecin viability 0.587; viability with camptothecin 48.7; inactive. EDN1 (GeneID 1906) #2 scored log2 vehicle/camptothecin viability -0.368; viability with camptothecin 82; inactive. After knock-down of EDN1 (GeneID 1906) #3 the results were log2 vehicle/camptothecin viability -0.289; viability with camptothecin 113; inactive. EDN1 (GeneID 1906) #4 scored log2 vehicle/camptothecin viability 0.272; viability with camptothecin 71.3; inactive.
